Measured data: PubChem BioAssay AID652259 (Drosophila RNAi Screening Center, 2013)
Purpose: 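Identify new Wingless signalling regulators in fly cells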 (primary screen). System: Drosophila clone 8 imaginal disc epithelial cells. Knock-down reagent: long dsRNA against Drosophila genes. Treatment: pathway stimulated by co-transfected Wingless expression plasmid. Read-out: 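Firefly luciferase from a tcf-site Wingless reporter, measured alongside co-transfected Renilla luciferase that tracks transfection; pathway stimulated by a Wingless plasmid; the firefly-to-Renilla ratio is not deposited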. Scale: firefly reporter light: higher = more Wg reporter light, before normalisation; Renilla control light: higher = more transfected or surviving cells. Hit rule: 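a knock-down is a candidate when at least two out of four statistical tests show it departing from its plate mean; one test alone signals a weak candidate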. Meaning of the calls: active = candidate regulator (raises or lowers reporter); inactive = not a candidate.
In all, the deposit lists about 22,000 reagents; shown is an unselected part of those with a known target gene and a result. Of all reagents, 233 (1.1%) were called active. 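Light values are raw, unnormalised plate reads; the ratio scores behind the reporter calls were not deposited.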 Reagent sequences are not shown. Not stated in the record: the amount of reagent, the time to read-out, the dose of the treatment.

no.	predicted target	DRSC id	reporter change call, replicate 1	firefly reporter light, replicate 1	firefly reporter light, replicate 2	Renilla control light, replicate 1	Renilla control light, replicate 2	Call
1	e(y)2b (enhancer of yellow 2b)	DRSC12556		22181		5596		inactive
2	Hex-A (Hexokinase A)	DRSC18259		16065		8327		inactive
3	Ptp52F (Protein tyrosine phosphatase 52F)	DRSC06717		5792		2309		inactive
4	rho-5 (rhomboid-5)	DRSC02847		3968	12609	1174	5549	inactive
5	CG42820	DRSC02265		2354	7532	882	3465	inactive
6	CG8671	DRSC03102		3259	5355	770	2192	inactive
7	CG8671	DRSC03103		2448	5788	793	2501	inactive
8	Snx21 (Sorting nexin 21)	DRSC00564		11072		4082		inactive
9	CG4806	DRSC04491		2330	4426	688	1382	inactive
10	CG7872	DRSC20062		2993	8019	996	2465	inactive
11	CG6415	DRSC02954		6906		2075		inactive
12	CG17362	DRSC10267		5131		2474		inactive
13	RalGPS (Ral GEF with PH domain and SH3 binding motif)	DRSC06941		12246		3473		inactive
14	CG13300	DRSC09974		944	4324	555	1640	inactive
15	SC35 (SR family splicing factor SC35)	DRSC02502		2618	5959	597	2304	inactive
16	SC35 (SR family splicing factor SC35)	DRSC03425		2208	9861	1195	3864	inactive
17	Pdss2 (Decaprenyl diphosphate synthase subunit 2)	DRSC11625		2631		971		inactive
18	CG11298	DRSC04100		1891	5451	346	2023	inactive

Continued, starting with the last 7 of the part before.
no.	predicted target	DRSC id	reporter change call, replicate 1	firefly reporter light, replicate 1	firefly reporter light, replicate 2	Renilla control light, replicate 1	Renilla control light, replicate 2	Call
12	CG17362	DRSC10267		5131		2474		inactive
13	RalGPS (Ral GEF with PH domain and SH3 binding motif)	DRSC06941		12246		3473		inactive
14	CG13300	DRSC09974		944	4324	555	1640	inactive
15	SC35 (SR family splicing factor SC35)	DRSC02502		2618	5959	597	2304	inactive
16	SC35 (SR family splicing factor SC35)	DRSC03425		2208	9861	1195	3864	inactive
17	Pdss2 (Decaprenyl diphosphate synthase subunit 2)	DRSC11625		2631		971		inactive
18	CG11298	DRSC04100		1891	5451	346	2023	inactive
19	CG31710	DRSC01089		23761		12714		inactive
20	CG31710	DRSC22863		6.12e5	6.37e5	3.20e5	3.96e5	inactive
21	RpS2 (Ribosomal protein S2)	DRSC03614		5653		1053		inactive
22	aqrs (aquarius)	DRSC14724		8790		2693		inactive
23	CR32733 (pseudo)	DRSC17481		3594		836		inactive
24	spz3 (spatzle 3)	DRSC02391		3080	4562	713	2032	inactive
25	spz3 (spatzle 3)	DRSC03008		4160	7901	966	2442	inactive
26	Mpv17 (Mitochondrial inner membrane protein MPV17)	DRSC17198		17104		11456		inactive
27	CG33757	DRSC05159		15625		7136		inactive
28	GATAe	DRSC14223	Wg reporter activity raised	4628	12290	550	1819	inactive
29	CG30280	DRSC21761		3.73e5	5.60e5	1.37e5	1.40e5	inactive
30	srp (serpent)	DRSC13125		2579		746		inactive
31	srp (serpent)	DRSC17068		12619		1841		inactive
32	Rpn7 (Regulatory particle non-ATPase 7)	DRSC16841		1877	2538	534	1003	inactive
33	Cyt-c1 (Cytochrome c1)	DRSC10447		5331		2455		inactive
34	Ttc7 (Tetratricopeptide repeat domain 7)	DRSC04836		9107		3133		inactive
35	Shal (Shaker cognate l)	DRSC09625		3047		1248		inactive
36	Shal (Shaker cognate l)	DRSC11283		19020		7494		inactive
37	Tip60 (Tat interactive protein 60kDa)	DRSC18661	Wg reporter activity raised	12587	28448	1431	2373	active
38	lectin-46Cb	DRSC06611		3920	12272	1724	5117	inactive
39	NijC (Ninjurin C)	DRSC14851		10774		3613		inactive
40	CG2712	DRSC18589		2931	7223	1361	2373	inactive
41	Hel25E (Helicase at 25E)	DRSC03342		3620		1350		inactive
42	AGO2 (Argonaute 2)	DRSC09999		2692		423		inactive
43	AGO2 (Argonaute 2)	DRSC10847		3190		884		inactive
44	Z600	DRSC11317		5600		2384		inactive
45	CG12375	DRSC02163		10516		3954		inactive
46	twz (tiwaz)	DRSC04069		1664	6048	705	2729	inactive
47	CG32772	DRSC18052	Wg reporter activity raised	28039		13313		active
48	CG32772	DRSC18406		4115	6608	1744	1682	inactive
49	CG32772	DRSC22349		6.19e5	6.58e5	2.39e5	2.34e5	inactive
